Patent US20130309695A1, “METHODS OF DIAGNOSING ASTHMA” (UNIVERSITY OF MANITOBA, priority 2010, published 2013)
At least one compound was matched to its structure with a doubt left.

Tested on: TNF-α-mediated PTX3 release from HASMC
Assay: Effect of MAPK inhibitors on TNF-α-induced PTX3 release from HASMC (ELISA)
Assay type: cell-based, human
Settings: 50 nM, 1 h pretreatment, then TNF-α 10 ng/ml for 24 h
Protocol: Confluent HASMC (passages 2-5) were growth-arrested by FBS deprivation for 48 h in Ham's F-12 medium containing 5 μg/ml human recombinant insulin, 5 μg/ml human transferrin, 5 ng/ml selenium, and antibiotics (100 U/ml penicillin and 100 μg/ml streptomycin). Cells were then stimulated in fresh FBS-free medium containing graded concentration (0.1, 1, 10, and 100 ng/ml) of human TNF-α, IL-4, PTX3 or medium alone. In some experiments, cells were pretreated for 1 h with U-0126 (10 μM), SB-203580 (10 μM), or SP600125 (50 nM) before stimulation for 24 h with TNF-α (10 ng/ml), at 10 ng/ml. Supernatants were collected at 24 and 48 h, centrifuged at 1,200 rpm for 7 min at 4° C. to remove cellular debris, and stored at −80° C. until analysis by ELISA.
Immunoreactive PTX3 within the supernatants was quantified using ELISA with matched antibodies according to basic laboratory protocols provided by the manufacturer (R&D Systems Inc., Minneapolis, Minn.). PTX3 protein was quantified in reference to serial dilutions of recombinant standards falling within the linear part of the standard curve for each specific PTX3 measured. Each data point represents readings from a minimum of four independent assays wherein each assay was performed in duplicate.
One of the major downstream pathways for TNF-α-induced cell activation is MAPKs, which play an important role in cells for inflammatory response. […]

Oc1c2ccccc2c2c3c(cccc13)N=N2 [SP600125]
effect on TNF-α-induced PTX3 release: significant inhibition | effect on TNF-α-induced PTX3 release (listed as SP500125): abrogate
